Results from patent publication EP1581246B1, “COMPOSITIONS FOR THE TREATMENT AND PREVENTION OF NEPHROPATHY” (Amylin Pharmaceuticals, LLC, priority 2002, dated 2013).
Not every detail of the peptide structures is certain; ends, links or a residue may be inferred.

What was measured:
Assay type in all cases: in vivo
aortic rings = test: Endothelial function in aortic rings from treated Dahl S rats (organ bath, rings preconstricted with norepinephrine)
Dahl S rats [1] = test: Histological evaluation of the kidney (renal end-organ damage) in Dahl S rats fed a high salt diet
Dahl S rats [2] = test: Effect of rGLP-1 on mean arterial pressure (development of hypertension) in Dahl S rats fed a high salt diet; conditions: high salt diet (8% NaCl) for 14 days, continuous i.v. infusion 1 µg/kg/min, vehicle 174 ± 6, baseline 122 ± 2
Dahl S rats [3] = test: Effect of rGLP-1 on renal dysfunction (proteinuria, microalbuminuria, plasma creatinine) in Dahl S rats fed a high salt diet; conditions: 1 µg/kg/min, versus vehicle
[4] = high salt diet 14 days, versus vehicle

## CC[C@H](C)[C@H](NC(=O)[C@H](Cc1ccccc1)NC(=O)[C@H](CCC(=O)O)NC(=O)[C@H](CCCCN)NC(=O)[C@H](C)NC(=O)[C@H](C)NC(=O)[C@H](CCC(N)=O)NC(=O)CNC(=O)[C@H](CCC(=O)O)NC(=O)[C@H](CC(C)C)NC(=O)[C@H](Cc1ccc(O)cc1)NC(=O)[C@H](CO)NC(=O)[C@H](CO)NC(=O)[C@@H](NC(=O)[C@H](CC(=O)O)NC(=O)[C@H](CO)NC(=O)[C@@H](NC(=O)[C@H](Cc1ccccc1)NC(=O)[C@@H](NC(=O)CNC(=O)[C@H](CCC(=O)O)NC(=O)[C@H](C)NC(=O)[C@@H](N)Cc1c[nH]cn1)[C@@H](C)O)[C@@H](C)O)C(C)C)C(=O)N[C@@H](C)C(=O)N[C@@H](Cc1c[nH]c2ccccc12)C(=O)N[C@@H](CC(C)C)C(=O)N[C@H](C(=O)N[C@@H](CCCCN)C(=O)NCC(=O)N[C@@H](CCCNC(=N)N)C(N)=O)C(C)C [rGLP-1, recombinant glucagon-like peptide-1(7-36)amide]
Aortic rings; DEA NON-Oate, aortic rings from all rats compared
  vasodilator responses to the NO donor: similar
Aortic rings; at 10^-4M Ach, aortic rings preconstricted with NE, chronically treated Dahl S rats on high salt diet, vehicle 35 ± 5
  vasodilator response to Ach: 57 ± 4 % relaxation
Dahl S rats [1]; [4]
  degree of tubular necrosis in the outer medulla: greatly reduced
  number of protein casts in the outer medulla: greatly reduced
Dahl S rats [1]; index of renal hypertrophy, high salt diet 14 days, chronic treatment, versus vehicle
  kidney weight: reduced
Dahl S rats [1]; scale of 0-4, high salt diet 14 days, vehicle 3.1, low salt diet group 2.5 ± 0.04
  glomerular injury score: 2.64 ± 0.05
Dahl S rats [2]
  MAP: 136 ± 7 mmHg
Dahl S rats [3]; high salt diet 14 days
  attenuation of the increase in urinary excretion of albumin: 68%
  attenuation of the increase in urinary excretion of protein: 62%
Dahl S rats [3]; high salt diet
  reduction of the rise in plasma creatinine concentration: 62%
